Results as given in the supplement of paper PMC11732987, “Enantioselective OTUD7B fragment discovery through chemoproteomics screening and high-throughput optimisation” (Communications Chemistry, 2025).
Some of the results follow. The data scatter; read single values as rough.

Amino acid sequences for entries named in this document (tags omitted). A change or cut given only in a name is not applied to a line headed by its entry.
UniProt Q9UKX7: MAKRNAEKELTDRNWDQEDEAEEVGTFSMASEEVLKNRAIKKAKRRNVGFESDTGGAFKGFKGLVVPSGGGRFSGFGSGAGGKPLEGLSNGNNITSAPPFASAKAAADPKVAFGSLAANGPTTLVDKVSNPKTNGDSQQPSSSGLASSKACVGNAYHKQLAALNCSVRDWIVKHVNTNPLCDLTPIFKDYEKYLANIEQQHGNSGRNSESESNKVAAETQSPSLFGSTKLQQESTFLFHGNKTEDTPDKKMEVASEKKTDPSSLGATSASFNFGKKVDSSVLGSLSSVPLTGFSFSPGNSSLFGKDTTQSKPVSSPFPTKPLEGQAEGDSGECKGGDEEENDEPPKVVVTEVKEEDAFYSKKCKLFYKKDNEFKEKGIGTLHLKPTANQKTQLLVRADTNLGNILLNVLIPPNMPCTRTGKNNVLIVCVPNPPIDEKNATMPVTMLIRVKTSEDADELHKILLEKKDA

molecular target: T1, NUP50 C333 (UniProt Q9UKX7); test: log2 mean competition ratio of IA-DTB cysteine labelling (DMSO/compound) (log2 ratio); higher = stronger cysteine engagement by compound; conditions: 50 µM; treatment time: 4 h; cell line lysate: HEK293T
T1 sequence (whole entry): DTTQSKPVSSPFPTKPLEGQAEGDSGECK
Description: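 IA-DTB competitive cysteine chemoproteomics in HEK293T RIPA lysate. Lysates were treated with compound 29 or 30 at 50 or 200 µM for 4 h, then IA-DTB (500 µM, 1 h), trypsin-digested, NeutrAvidin-enriched and analysed by diaPASEF. Competition ratio = intensity DMSO / intensity compound (n=4 treated, n=64 DMSO); binding: mean log2 CR ≥ 1 and p ≤ 0.05 plus QC filters. Target is the cysteine site.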

Row | SMILES | log2 mean competition ratio
1 | O=C(CCl)N[C@H]1CCCc2ccccc21 | 0.672
2 | O=C(CCl)N[C@@H]1CCCc2ccccc21 | 0.0522

same assay, conditions: 200 µM; treatment time: 4 h; cell line lysate: HEK293T

Row | SMILES | log2 mean competition ratio
3 | O=C(CCl)N[C@H]1CCCc2ccccc21 | -0.0029
4 | O=C(CCl)N[C@@H]1CCCc2ccccc21 | -0.107
